# Experimental data reported in US20230284660A1, “Siamenoside I Sweetened Compositions and Uses of the Same” (The Coca-Cola Company, priority 2017, published 2023).
# Assay: Blind bench evaluation of sweeteners in six beverage matrices, RebM90 as control
# Type: in vivo, human
# Experimental: A blind evaluation of the above-named sweeteners was conducted in six (6) beverage (liquid) matrices, including both sparkling and still matrixes. Of the six beverage matrices, four (4) were calorie reduction matrixes and two (2) were diet matrixes. RebM90 served as control. 7-10 internal team members blindly evaluated the samples.
smiles,measurement,setting,value
C[C@H](CC[C@@H](O[C@@H]1O[C@H](CO[C@@H]2O[C@H](CO)[C@@H](O)[C@H](O)[C@H]2O)[C@@H](O)[C@H](O)[C@H]1O[C@@H]1O[C@H](CO)[C@@H](O)[C@H](O)[C@H]1O)C(C)(C)O)[C@H]1CC[C@@]2(C)[C@@H]3CC=C4[C@@H](CC[C@H](O[C@@H]5O[C@H](CO[C@@H]6O[C@H](CO)[C@@H](O)[C@H](O)[C@H]6O)[C@@H](O)[C@H](O)[C@H]5O)C4(C)C)[C@]3(C)[C@H](O)C[C@]12C [Mogroside V],Comments,"Cola type of beverage, one highly sensitive tester",mogroside V had some monk
C=C1C[C@@]23CC[C@H]4[C@@](C)(CCC[C@@]4(C)C(=O)O[C@@H]4O[C@H](CO)[C@@H](O)[C@H](O[C@@H]5O[C@H](CO)[C@@H](O)[C@H](O)[C@H]5O)[C@H]4O[C@@H]4O[C@@H](C)[C@H](O)[C@@H](O)[C@H]4O)[C@@H]2CC[C@]1(O[C@@H]1O[C@H](CO)[C@@H](O)[C@H](O[C@@H]2O[C@H](CO)[C@@H](O)[C@H](O)[C@H]2O)[C@H]1O[C@@H]1O[C@H](CO)[C@@H](O)[C@H](O)[C@H]1O)C3 [Rebaudioside N],Comments,Orange Juice (5.3 Brix from juice),rebaudioside N performs closest
C[C@H](CC[C@@H](O[C@@H]1O[C@H](CO)[C@@H](O)[C@H](O)[C@H]1O[C@@H]1O[C@H](CO)[C@@H](O)[C@H](O)[C@H]1O)C(C)(C)O)[C@H]1CC[C@@]2(C)[C@H]3CC=C4[C@@H](CC[C@H](O[C@@H]5O[C@H](CO[C@@H]6O[C@H](CO)[C@@H](O)[C@H](O)[C@H]6O)[C@@H](O)[C@H](O)[C@H]5O)C4(C)C)[C@]3(C)[C@H](O)C[C@]12C [Mogroside IV],Comments,Lemon Lime Sparkling (70% sugar reduction),IV slightly bitter.
